From paper PMC3694828
Results are given in words; binding and its absence hold for the method and conditions named. In cells and extracts the contact can be indirect. Some binding calls cover weakened binding; strength is not graded here. For part of these data: Tags and fused reporters may be left off the sequences shown.

Amino acid sequences for entries named in this document (tags omitted).
UniProt Q02447: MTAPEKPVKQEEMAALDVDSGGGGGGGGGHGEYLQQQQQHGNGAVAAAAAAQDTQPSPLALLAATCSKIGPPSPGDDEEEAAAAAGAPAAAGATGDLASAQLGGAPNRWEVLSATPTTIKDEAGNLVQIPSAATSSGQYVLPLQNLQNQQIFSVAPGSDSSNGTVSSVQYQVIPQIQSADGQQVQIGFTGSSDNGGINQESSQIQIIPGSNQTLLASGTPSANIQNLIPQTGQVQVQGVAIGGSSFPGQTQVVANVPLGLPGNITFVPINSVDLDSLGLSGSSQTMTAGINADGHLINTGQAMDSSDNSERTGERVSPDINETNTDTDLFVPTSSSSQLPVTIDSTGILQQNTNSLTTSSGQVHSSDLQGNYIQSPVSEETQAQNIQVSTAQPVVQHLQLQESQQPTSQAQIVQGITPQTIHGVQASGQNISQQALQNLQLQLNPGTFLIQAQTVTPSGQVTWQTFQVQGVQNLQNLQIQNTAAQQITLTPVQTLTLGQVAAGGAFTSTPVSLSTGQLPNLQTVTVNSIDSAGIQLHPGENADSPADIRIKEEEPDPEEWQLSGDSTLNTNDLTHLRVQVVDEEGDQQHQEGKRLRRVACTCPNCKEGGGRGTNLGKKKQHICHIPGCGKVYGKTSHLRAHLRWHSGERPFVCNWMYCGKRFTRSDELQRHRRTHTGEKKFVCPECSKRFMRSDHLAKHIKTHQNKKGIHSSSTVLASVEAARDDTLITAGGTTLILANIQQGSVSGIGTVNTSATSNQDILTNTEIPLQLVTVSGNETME
UniProt P08047: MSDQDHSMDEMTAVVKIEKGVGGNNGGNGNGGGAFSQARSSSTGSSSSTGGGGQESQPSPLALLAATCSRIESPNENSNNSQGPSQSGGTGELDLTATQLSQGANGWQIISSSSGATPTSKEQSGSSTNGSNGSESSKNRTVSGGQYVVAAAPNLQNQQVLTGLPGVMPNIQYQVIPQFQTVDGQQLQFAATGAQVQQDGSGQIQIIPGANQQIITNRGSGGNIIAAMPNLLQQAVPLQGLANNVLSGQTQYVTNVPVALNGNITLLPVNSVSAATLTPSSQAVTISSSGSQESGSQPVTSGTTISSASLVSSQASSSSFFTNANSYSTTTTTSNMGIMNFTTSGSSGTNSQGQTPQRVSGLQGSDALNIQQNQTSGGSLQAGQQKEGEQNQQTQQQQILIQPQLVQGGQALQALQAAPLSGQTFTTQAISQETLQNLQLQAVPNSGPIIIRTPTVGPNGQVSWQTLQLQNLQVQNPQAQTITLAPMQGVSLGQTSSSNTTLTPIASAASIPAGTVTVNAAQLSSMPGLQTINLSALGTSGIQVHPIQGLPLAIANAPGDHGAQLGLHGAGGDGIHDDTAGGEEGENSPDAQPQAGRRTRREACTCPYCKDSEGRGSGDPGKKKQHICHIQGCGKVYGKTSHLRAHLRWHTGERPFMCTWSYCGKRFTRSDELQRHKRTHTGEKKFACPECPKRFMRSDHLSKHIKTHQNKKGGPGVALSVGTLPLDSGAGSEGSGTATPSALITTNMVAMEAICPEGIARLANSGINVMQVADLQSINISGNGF

T1: DEAF-1 EGFP fusion protein (UniProt O75398)
T1 sequence: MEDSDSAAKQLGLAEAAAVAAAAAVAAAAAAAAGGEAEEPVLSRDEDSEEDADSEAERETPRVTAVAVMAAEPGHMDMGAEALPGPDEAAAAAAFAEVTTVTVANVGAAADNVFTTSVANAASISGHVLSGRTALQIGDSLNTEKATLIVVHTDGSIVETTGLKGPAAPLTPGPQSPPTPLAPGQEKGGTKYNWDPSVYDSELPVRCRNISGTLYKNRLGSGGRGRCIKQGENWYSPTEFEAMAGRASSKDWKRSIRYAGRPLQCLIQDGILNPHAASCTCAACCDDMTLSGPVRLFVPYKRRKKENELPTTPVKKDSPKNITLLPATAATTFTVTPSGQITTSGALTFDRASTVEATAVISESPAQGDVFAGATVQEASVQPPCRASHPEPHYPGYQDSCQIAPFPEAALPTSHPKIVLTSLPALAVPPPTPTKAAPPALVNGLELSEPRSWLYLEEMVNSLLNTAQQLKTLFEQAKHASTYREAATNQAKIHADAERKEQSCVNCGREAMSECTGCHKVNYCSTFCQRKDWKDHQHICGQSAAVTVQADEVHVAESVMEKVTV


Columns and labels:
[1] = molecular target: Sp3 (human (endogenous in SW1353)) (UniProt Q02447); test: co-IP; untransfected SW1353 nuclear extract (200 ug, diluted 1 in 5 in high salt lysis buffer), 10 ug antibody to the endogenous bait overnight at 4 C, magnetic protein A beads, immunoblot
[2] = molecular target: T1, DEAF-1 EGFP fusion protein; test: co-IP; SW1353 lysate over expressing DEAF-1 EGFP, immunoprecipitated with an EGFP antibody, magnetic protein A beads, immunoblot of endogenous partners
[3] = molecular target: Sp1 (human (endogenous in SW1353)) (UniProt P08047); test: co-IP; untransfected SW1353 nuclear extract (200 ug, diluted 1 in 5 in high salt lysis buffer), 10 ug antibody to the endogenous bait overnight at 4 C, magnetic protein A beads, immunoblot

binding [1]	binding [2]	binding [3]	Molecule
binds	binds	–	Sp1 (from UniProt P08047 1-785)
–	binds	binds	Sp3 (from UniProt Q02447 1-781)
binds	–	binds	DEAF-1 (protein, UniProt O75398 1-565) MEDSDSAAKQLGLAEAAAVAAAAAVAAAAAAAAGGEAEEPVLSRDEDSEEDADSEAERETPRVTAVAVMAAEPGHMDMGAEALPGPDEAAAAAAFAEVTTVTVANVGAAADNVFTTSVANAASISGHVLSGRTALQIGDSLNTEKATLIVVHTDGSIVETTGLKGPAAPLTPGPQSPPTPLAPGQEKGGTKYNWDPSVYDSELPVRCRNISGTLYKNRLGSGGRGRCIKQGENWYSPTEFEAMAGRASSKDWKRSIRYAGRPLQCLIQDGILNPHAASCTCAACCDDMTLSGPVRLFVPYKRRKKENELPTTPVKKDSPKNITLLPATAATTFTVTPSGQITTSGALTFDRASTVEATAVISESPAQGDVFAGATVQEASVQPPCRASHPEPHYPGYQDSCQIAPFPEAALPTSHPKIVLTSLPALAVPPPTPTKAAPPALVNGLELSEPRSWLYLEEMVNSLLNTAQQLKTLFEQAKHASTYREAATNQAKIHADAERKEQSCVNCGREAMSECTGCHKVNYCSTFCQRKDWKDHQHICGQSAAVTVQADEVHVAESVMEKVTV
